# Source: the supplement of paper PMC12578635
# Some of the results follow. Cut-off read from the data, not from the text of the source: active = 150% or more and inactive = the rest. Many values rest on one well or one pass, so single values are uncertain.
# System: Staphylococcus aureus JE2-lux inside RAW 264.7 macrophages
# Assay: intracellular bacterial bioluminescence relative to DMSO vehicle; higher = higher intracellular bacterial metabolic activity
# Conditions: 10 µM; treatment time 4 h; gentamicin 50 µg/ml
row,SMILES,intracellular bacterial bioluminescence
1,CC(=O)Nc1cccnc1-c1ccc(C(=O)NC2CCCc3ccccc32)cc1 (stereo unspecified),inactive: 92.7%
2,CCN(c1ccccc1)S(=O)(=O)c1ccc2[nH]c(=O)[nH]c2c1,inactive: 103%
3,CCOC(=O)c1sc(NC(=O)CSc2nc3sc(C(C)=O)c(C)c3c(=O)[nH]2)nc1C,inactive: 94.4%
4,NC(=O)c1ccccc1NC(=O)c1ccc2nncn2c1,inactive: 103%
5,Cc1nn(C)c(C)c1CNC(=O)c1cc(-c2ccccn2)nc2ccccc12,inactive: 85.9%
6,O=C1NC(=O)/C(=C/c2ccc(C(=O)Nc3ccc(C(=O)O)cc3)cc2)S1,inactive: 89%
7,N#CC1=C(N)OC2=C(C(=O)CCC2)C1c1ccc(-c2cccc([N+](=O)[O-])c2)o1 (stereo unspecified),inactive: 55.4%
8,O=c1nc2s/c(=C/c3ccccn3)c(=O)n2nc1-c1ccccc1,inactive: 103%
9,COC(=O)c1ccccc1NC1SC(=O)N(c2cccc(C)c2)C1=O (stereo unspecified),inactive: 82.4%
10,Cc1nc(-n2nc(C)c(CCC(C)C)c2O)sc1C(=O)Nc1ccc(Cl)cc1,active: 155%
11,O=C(CSCc1ccccc1)NCc1n[nH]c(=O)c2ccccc12,inactive: 78.5%
12,CC1CC(C)CN(S(=O)(=O)c2ccc(C(=O)Nc3ccc4ncsc4c3)cc2)C1 (stereo unspecified),inactive: 130%
13,Cc1ccc(-c2noc(-c3cn(Cc4ccc(N)cc4)cn3)n2)cc1,inactive: 67.7%
14,COc1ccc(-c2nnc3sc(-c4ccc(Br)o4)nn23)cc1,inactive: 65%
15,O=C(NCc1nnnn1-c1ccc(F)cc1)Nc1ccc2c(c1)OCO2,inactive: 79.6%
16,Cc1cccn2c(=O)nc(SCC(=O)N3CCCCCC3)nc12,inactive: 142%

# Part of the list above, bar-delimited:
row | SMILES | intracellular bacterial bioluminescence
15 | O=C(NCc1nnnn1-c1ccc(F)cc1)Nc1ccc2c(c1)OCO2 | inactive: 79.6%
16 | Cc1cccn2c(=O)nc(SCC(=O)N3CCCCCC3)nc12 | inactive: 142%

# Next part:

row,SMILES,intracellular bacterial bioluminescence
1,O=C(CSc1nc2[nH]ncc2c(=O)[nH]1)N1CCC(Cc2ccccc2)CC1,inactive: 72.1%
2,O=C(Nc1cccc(C(=O)N2CCOCC2)c1)c1cnn(-c2ccc(F)cc2)c1,inactive: 74.1%
3,Cc1nn2c(=O)cc(CSc3nnc(-c4ccc5c(c4)OCO5)o3)nc2s1,inactive: 98.2%
4,CCOC(=O)c1cnn2c(C)c(Cc3ccccc3)c(C)nc12,inactive: 79.6%
5,CCOc1ccc(C(=O)NCC(c2ccc3c(c2)CCN3C)N2CCCCC2)cc1 (stereo unspecified),inactive: 146%
6,Cn1cnnc1SCC(=O)Nc1nnc(-c2ccc(Br)cc2)s1,inactive: 130%
7,Cc1[nH]c(=O)[nH]c(=O)c1NC(=O)CSc1ccc(-c2ccc(F)cc2)nn1,inactive: 119%
8,NS(=O)(=O)c1ccc(NC(=O)CCn2cnc3onc(-c4ccccc4Cl)c3c2=O)cc1,inactive: 118%
9,O=C(Nc1ccccc1F)N1CCc2nc(N3CCCC3)[nH]c(=O)c2C1,inactive: 101%
10,CC(C)N1CCn2c(nc3cc(NC(=O)CCc4ccccc4)ccc32)C1,inactive: 53.4%
11,COC(=O)c1cc(C)sc1NC(=O)CC1Sc2ccc(C(F)(F)F)cc2NC1=O (stereo unspecified),inactive: 133%
12,Cc1cc(Nc2nc(C(=O)N3CCC(N4CCCCC4)CC3)cc3occc23)ccc1Br,active: 151%
13,CCC(C(=O)Nc1c(C(=O)Nc2ccc([N+](=O)[O-])cc2)oc2ccccc12)c1ccccc1 (stereo unspecified),inactive: 124%
14,COc1ccccc1CNC(=O)c1nccn1Cc1ccccc1Cl,inactive: 55.1%
15,O=C1Nc2c(Cl)cc(Cl)cc2/C1=N\NC(=O)c1ccccc1O,inactive: 92.7%
